Reference: patent US20240092846A1 (priority 2022, published 2024)
Strings that start with PEPTIDE1 are HELM notation: dots part the residues, brackets hold end groups and non-standard residues.

Test: general procedure: Fmoc solid-phase peptide synthesis; Rink-amide resin; HBTU/DIEA
Conditions: cyclisation step, on linear thioester

Substance	cyclisation yield
PEPTIDE1{G.G.V.C.P.K.I.L.Q.R.C.R.R.D.S.D.C.P.G.A.C.I.C.R.G.N.G.Y.C.G.S.G.S.G.G.R.L.C.Y.C.R.R.R.F.C.V.C.V.G.R.R}$PEPTIDE1,PEPTIDE1,1:R1-51:R2|PEPTIDE1,PEPTIDE1,4:R3-21:R3|PEPTIDE1,PEPTIDE1,11:R3-23:R3|PEPTIDE1,PEPTIDE1,17:R3-29:R3|PEPTIDE1,PEPTIDE1,38:R3-47:R3|PEPTIDE1,PEPTIDE1,40:R3-45:R3$$$V2.0	40%
cyclo [GGVCPKILQRCRRDSDCPGACICRGNGYCGSGSGGCLCYCRRRFCVCVCRR]	16%
cyclo [GGVCPKILQRCRRDSDCPGACICRGNGYCGSGSGGGRLCYCRRRFCVCVCGRRG]	18%
cyclo [GGVCPKILQRCRRDSDCPGACICRGNGYCGSGSGRLCYCRRRFCVCVGR] (cyclic)	20%
